Laboratory results published in paper PMC3579733.
No constants are given. Whether binding was seen depends on the method and setting. Binding seen in cells or lysates may run through a third protein. Here binding means that the protein was enriched with, or labelled near, the bait; the list need not be complete. No binding means not detected with the bait.

How the values were obtained:
Test in all cases: affinity purification with mass spectrometry; one-step and two-step bait fishing taken together (final data set; both methods applied to all baits); the place does not tell which of the two gave the result
[1] = biological target: T1, CheB (Halobacterium salinarum R1 (DSM 671)) (UniProt B0R4K0)
T1 sequence: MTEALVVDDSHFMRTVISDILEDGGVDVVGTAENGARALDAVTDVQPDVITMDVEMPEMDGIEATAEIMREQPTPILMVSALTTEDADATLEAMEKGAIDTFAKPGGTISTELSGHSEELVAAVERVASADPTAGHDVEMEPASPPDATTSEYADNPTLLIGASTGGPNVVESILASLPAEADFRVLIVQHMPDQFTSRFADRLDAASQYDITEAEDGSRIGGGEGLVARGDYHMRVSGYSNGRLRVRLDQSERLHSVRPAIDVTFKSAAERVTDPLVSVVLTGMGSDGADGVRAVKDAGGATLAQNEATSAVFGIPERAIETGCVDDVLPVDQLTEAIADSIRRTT

[2] = biological target: T2, CheC1 (Halobacterium salinarum R1 (DSM 671)) (UniProt B0R4J8)
T2 sequence: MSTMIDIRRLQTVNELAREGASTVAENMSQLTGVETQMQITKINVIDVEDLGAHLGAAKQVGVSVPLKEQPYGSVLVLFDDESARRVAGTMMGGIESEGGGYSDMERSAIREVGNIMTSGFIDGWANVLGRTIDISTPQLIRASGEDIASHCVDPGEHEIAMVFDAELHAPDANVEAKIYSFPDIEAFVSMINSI

[3] = biological target: T3, CheC2 (Halobacterium salinarum R1 (DSM 671)) (UniProt Q9HPJ6)
T3 sequence: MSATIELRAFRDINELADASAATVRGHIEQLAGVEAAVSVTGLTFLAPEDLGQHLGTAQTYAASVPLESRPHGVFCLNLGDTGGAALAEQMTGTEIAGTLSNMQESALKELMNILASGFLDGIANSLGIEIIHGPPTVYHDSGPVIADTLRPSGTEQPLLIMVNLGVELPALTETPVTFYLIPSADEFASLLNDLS

[4] = biological target: CheC3 (Halobacterium salinarum R1 (DSM 671))
[5] = biological target: CheD (Halobacterium salinarum R1 (DSM 671))
[6] = biological target: T4, CheF1 (Halobacterium salinarum R1 (DSM 671)) (UniProt B0R4J3)
T4 sequence: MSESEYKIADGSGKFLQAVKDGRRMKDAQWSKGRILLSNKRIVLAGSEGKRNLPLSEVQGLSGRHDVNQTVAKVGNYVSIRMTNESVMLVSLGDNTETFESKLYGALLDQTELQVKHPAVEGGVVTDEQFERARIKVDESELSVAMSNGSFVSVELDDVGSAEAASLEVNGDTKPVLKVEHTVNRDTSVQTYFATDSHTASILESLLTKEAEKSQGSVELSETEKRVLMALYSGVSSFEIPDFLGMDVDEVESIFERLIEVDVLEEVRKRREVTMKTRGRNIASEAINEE

[7] = biological target: T5, CheR (Halobacterium salinarum R1 (DSM 671)) (UniProt B0R4J5)
T5 sequence: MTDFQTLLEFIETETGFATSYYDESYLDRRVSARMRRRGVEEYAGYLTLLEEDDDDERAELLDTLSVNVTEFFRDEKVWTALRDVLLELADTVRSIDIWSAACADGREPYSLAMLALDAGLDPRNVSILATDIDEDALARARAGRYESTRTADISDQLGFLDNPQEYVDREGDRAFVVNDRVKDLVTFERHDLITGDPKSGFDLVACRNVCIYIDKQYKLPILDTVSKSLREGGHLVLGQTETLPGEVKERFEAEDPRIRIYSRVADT

[8] = biological target: T6, CheW1 (Halobacterium salinarum R1 (DSM 671)) (UniProt Q9HQW5)
T6 sequence: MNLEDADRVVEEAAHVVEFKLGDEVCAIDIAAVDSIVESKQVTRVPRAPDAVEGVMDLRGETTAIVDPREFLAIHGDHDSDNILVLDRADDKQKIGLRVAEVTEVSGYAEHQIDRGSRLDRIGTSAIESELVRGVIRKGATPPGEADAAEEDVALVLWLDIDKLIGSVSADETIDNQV

[9] = biological target: T7, CheW2 (Halobacterium salinarum R1 (DSM 671)) (UniProt Q9HQY8)
T7 sequence: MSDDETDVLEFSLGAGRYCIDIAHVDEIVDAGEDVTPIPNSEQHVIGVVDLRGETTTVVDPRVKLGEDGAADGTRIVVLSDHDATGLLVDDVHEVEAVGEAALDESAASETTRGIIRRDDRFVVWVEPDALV

[10] = biological target: T8, CheY (Halobacterium salinarum R1 (DSM 671)) (UniProt B0R4K1)
T8 sequence: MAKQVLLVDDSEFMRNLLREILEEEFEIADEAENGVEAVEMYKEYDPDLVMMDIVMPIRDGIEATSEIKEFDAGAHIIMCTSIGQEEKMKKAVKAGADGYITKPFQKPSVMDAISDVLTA

Measured: binding

B1: Htr7 (receptor, UniProt B0R6A6 1-545)
chain: MSGAAVFVDAVVAPLGDAVGAIGFGAAAALGYRNYRDTDAEAAFWMAFTFASLLGVTWTVSLMLEKAGVATQIFNLATGPLMATTVAVFAIGGTATLAIVEDMEALVEERAQRRQEAEEERAEAERAREKAEQKQAEAERQTAEAESAKQDARERSAEIEQLAADLESQATEVGATLEAASDGDLTARVDATTDNAEIAEVATVVNDMLTTMERTIDEIQGFSTNVTTASREATAGAKEIQDASQTVSESVQEIAAGTDDQREQLESVAEEMDSYSATVEEVAATAQSVADTAADTTDVATAGKQTAEDAIDAIDAVQETMQTTVANVDALEDLTTEIDDIAELISDIAEQTNMLALNANIEAARAGSGGGSNGDGFAVVADEVKELATESQRSAKDIAELIEEVQSQTATTVEEIRVAEQRVNDGAAAVEETVDAFGAVTENIQETTDGVQEISQAMDEQAQRSERVVSSVDDIATISQATADRAENVSAASEEQTASITEVTSSLQSLAAQADTLEDRLNEFRTEATGTAHGEATDAPAGQSD
no binding: all assays above
